Among the data in PubChem BioAssay AID248 (DTP/NCI, 2004) are survivor count and T/C values, retold here.

The structures appear in SMILES notation. The list shows only some results of the screen, not a fair sample: it is rich in T/C values a quarter to a half above the control, in often repeated tests (any T/C) and in doses without a T/C. Other doses and runs of a compound stand elsewhere. T/C: endpoint of the treated group in % of that of the vehicle group. Some entries give survivors of the animals treated and no T/C: the source files T/C as zero there, which appears to mark a toxic dose or a test without result, not a measured value. Some survivor counts are full or nearly so, which does not show that the dose was tolerated: survival well below the control is almost never listed, so the zero probably covers shortened survival too. Survivors were counted at the toxicity check, usually on the fifth day, unless a day is given; later deaths do not show. Schedules are NCI's codes, taken here to give the interval after Q, in days (D) or hours (H), and the number of doses after X. Some entries hold several experiments; the results are listed from low to high. Some structures stand for samples that the source files as different forms (salt, stereo form or complex); doses refer to the form tested. Where survival is the endpoint, the PubChem record calls one and a half times the control and up active, and a quarter to a half above the control has no call in these data; cut-offs in other NCI protocols can differ. Some T/C values are followed by the survivors on the day toxicity was checked, most often the fifth; without a count, all were alive then.

The subject of the experiment is L1210 leukemia ip in BDF1 mice, survival T/C. The experiment in a line: NCI In Vivo Anticancer Drug Screen. Data for tumor model L1210 Leukemia (intraperitoneal) in B6D2F1 (BDF1) mice. The conditions noted are these: T/C endpoint: mean survival time, higher T/C = longer survival.
Setting [1] is: dose: 400.0 mg/kg/injection, schedule: Q04DX003 (ip), vehicle: saline with Tween-80.
Setting [2] is: dose: 100.0 mg/kg/injection, schedule: Q04DX003 (ip), vehicle: saline with Tween-80.
Setting [3] is: dose: 400.0 mg/kg/injection, schedule: Q04DX002 (ip), vehicle: Klucel (hydroxypropylcellulose) (HPC).
Setting [4] is: dose: 100.0 mg/kg/injection, schedule: Q04DX002 (ip), vehicle: Klucel (hydroxypropylcellulose) (HPC).
The mark [5] stands for this setting: dose: 200.0 mg/kg/injection, schedule: Q04DX002 (ip), vehicle: saline with Tween-80.
Where [6] appears, read: dose: 400.0 mg/kg/injection, schedule: Q04DX002 (ip), vehicle: saline with Tween-80.
Where [7] appears, read: dose: 200.0 mg/kg/injection, schedule: Q01DX009 (ip), vehicle: Klucel (hydroxypropylcellulose) (HPC).
Where [8] appears, read: dose: 200.0 mg/kg/injection, schedule: Q01DX009 (ip), vehicle: saline with Tween-80.
The mark [9] stands for this setting: dose: 400.0 mg/kg/injection, schedule: Q01DX009 (ip), vehicle: saline with Tween-80.

For `CC(=O)c1cc(C)c(C)s1`, the survivor count is 6 of 6 (dose: 100.0 mg/kg/injection, schedule: Q01DX009 (ip), vehicle: saline with Tween-80) and 4 of 6 under setting [1].

With `CC(C)c1ccccc(=O)c1O.CC(C)c1ccccc(=O)c1O.[Cu]`, the survivor count is, setting by setting: under setting [2], 6 of 6; under setting [1], 5 of 6.

With `CSc1ncnc2c1ncn2CO`, the T/C reads like this: (dose: 85.0 mg/kg/injection, schedule: Q01DX009 (ip), vehicle: saline) 127 % of control; (dose: 92.0 mg/kg/injection, schedule: Q01DX009 (ip), vehicle: carboxymethylcellulose (CMC)) 128 % of control; (dose: 250.0 mg/kg/injection, schedule: Q01DX001 (ip), vehicle: saline) 131 % of control [4 of 6 alive]. Besides, the survivor count by setting is: (dose: 185.0 mg/kg/injection, schedule: Q01DX009 (ip), vehicle: carboxymethylcellulose (CMC)) 0 of 6; (dose: 185.0 mg/kg/injection, schedule: Q01DX009 (ip), vehicle: saline) 2 of 6; (dose: 240.0 mg/kg/injection, schedule: Q01DX009 (ip), vehicle: Klucel (hydroxypropylcellulose) (HPC)) 0 of 6; (dose: 375.0 mg/kg/injection, schedule: Q01DX001 (ip), vehicle: saline) 0 of 4.

Take `C=CCN(CC=C)c1nc(Cl)nc(Cl)n1`: the survivor count reads like this: (dose: 200.0 mg/kg/injection, schedule: Q01DX001 (ip), vehicle: carboxymethylcellulose (CMC)) 1 of 4; (dose: 400.0 mg/kg/injection, schedule: Q01DX001 (ip), vehicle: carboxymethylcellulose (CMC)) 0 of 4; under setting [3], 3 of 3.

Consider `O=C(O)c1ccc(I)cc1.[Ni]`, for which the T/C under setting [4] was 128 % of control [2 of 3 alive]. The survivor count by setting is: under setting [4], 0 of 3; (dose: 200.0 mg/kg/injection, schedule: Q04DX002 (ip), vehicle: Klucel (hydroxypropylcellulose) (HPC)) 0 of 3 and 1 of 3; under setting [3], 2 of 3.

For the compound `O=C(CC(O)(C(F)(F)F)C(F)(F)F)CC(O)(C(F)(F)F)C(F)(F)F`, the survivor count is 3 of 6 (dose: 1.0 mg/kg/injection, schedule: Q01DX009 (ip), vehicle: other); 2 of 6 (dose: 4.0 mg/kg/injection, schedule: Q04DX003 (ip), vehicle: other); 1 of 6 (dose: 6.25 mg/kg/injection, schedule: Q04DX003 (ip), vehicle: other); 0 of 6 (dose: 10.0 mg/kg/injection, schedule: Q01DX009 (ip), vehicle: saline with Tween-80); 0 of 6 (dose: 12.5 mg/kg/injection, schedule: Q04DX003 (ip), vehicle: other).

As for `CC1CCN1c1ccccc1` (stereo not drawn), the survivor count is 6 of 6 (dose: 200.0 mg/kg/injection, schedule: Q04DX003 (ip), vehicle: acetone) and 1 of 6 (dose: 400.0 mg/kg/injection, schedule: Q04DX003 (ip), vehicle: acetone).

`O=[N+]([O-])c1ccc(Cl)c(I)c1`: the survivor count (dose: 100.0 mg/kg/injection, schedule: Q01DX009 (ip), vehicle: saline + alcohol) is given as 3 of 3.

With `Fc1c(F)c(F)[c]([Hg][c]2c(F)c(F)c(F)c(F)c2F)c(F)c1F`, the survivor count is 3 of 3 (dose: 50.0 mg/kg/injection, schedule: Q04DX002 (ip), vehicle: saline with Tween-80); 0 of 3 (dose: 100.0 mg/kg/injection, schedule: Q04DX002 (ip), vehicle: saline with Tween-80); 0 of 3 under setting [5]; 0 of 3 under setting [6].

Consider `NC(=O)NN=C(CS)CS`, for which the survivor count is, setting by setting: (dose: 64.0 mg/kg/injection, schedule: Q01DX015 (ip), vehicle: carboxymethylcellulose (CMC)) 1 of 6; (dose: 100.0 mg/kg/injection, schedule: Q01DX001 (ip), vehicle: other) 3 of 6; (dose: 200.0 mg/kg/injection, schedule: Q01DX001 (ip), vehicle: other) 0 of 6; (dose: 400.0 mg/kg/injection, schedule: Q01DX001 (ip), vehicle: other) 0 of 6.

On to `C=C(C)C1Cc2c(ccc3c2OC2COc4cc(OC)c(OC)cc4C2(O)C3=O)O1` (stereo not drawn), for which the survivor count is 2 of 6 (dose: 25.0 mg/kg/injection, schedule: Q01DX009 (ip), vehicle: carboxymethylcellulose (CMC)); 0 of 6 (dose: 50.0 mg/kg/injection, schedule: Q01DX009 (ip), vehicle: carboxymethylcellulose (CMC)); 3 of 6 (dose: 100.0 mg/kg/injection, schedule: Q01DX009 (ip), vehicle: Klucel (hydroxypropylcellulose) (HPC)); 0 of 6 under setting [7]; 0 of 6 (dose: 400.0 mg/kg/injection, schedule: Q01DX009 (ip), vehicle: Klucel (hydroxypropylcellulose) (HPC)).

`C=CCCCCCCCCC(=O)N(CCOC)CCOC`: the survivor count under setting [8] was 3 of 6 and the survivor count under setting [9] is 0 of 6.

`O=S(=O)(Cl)CCCBr`: the survivor count (dose: 400.0 mg/kg/injection, schedule: Q01DX009 (ip), vehicle: saline sonified) is listed as 0 of 6.

`CC[C@]1(O)C[C@H](OC2CC(N(C)C)C(OC3CC(O)C(O)C(C)O3)C(C)O2)c2c(cc3c(c2O)C(=O)c2c(O)ccc(O)c2C3=O)[C@H]1C(=O)OC` (stereo partly drawn): the T/C (dose: 12.8 mg/kg/injection, schedule: Q01DX001 (ip), vehicle: Klucel (hydroxypropylcellulose) (HPC)) was 129 % of control.

As to `CC(=O)N1CCC(CC2CCCCC2)CC1`, the survivor count is, setting by setting: (dose: 100.0 mg/kg/injection, schedule: Q04DX003 (ip), vehicle: saline) 6 of 6; (dose: 200.0 mg/kg/injection, schedule: Q04DX003 (ip), vehicle: saline) 1 of 6; (dose: 400.0 mg/kg/injection, schedule: Q04DX003 (ip), vehicle: saline) 0 of 6.

As for `CCN(CC)CCCC(C)Nc1cccc2c1C(=O)c1ccccc1C2=O` (stereo not drawn), the survivor count reads like this: (dose: 200.0 mg/kg/injection, schedule: Q04DX002 (ip), vehicle: saline) 1 of 3; (dose: 400.0 mg/kg/injection, schedule: Q04DX002 (ip), vehicle: saline) 0 of 3.

`O=C(CBr)c1ccc(/C=C/c2ccc(Cl)cc2)cc1`: the survivor count was 2 of 6 under setting [8] and 1 of 6 under setting [9].

As to `O=C(C[n+]1cccc2ccccc21)c1ccc([N+](=O)[O-])cc1`, the survivor count runs as follows: under setting [5], 1 of 3; under setting [6], 0 of 3.

Take `COc1ccc(Nc2ccccc2C(=O)NN)cc1`: the survivor count runs as follows: under setting [7], 3 of 6; (dose: 400.0 mg/kg/injection, schedule: Q04DX003 (ip), vehicle: Klucel (hydroxypropylcellulose) (HPC)) 0 of 6.

As for `Cc1ccc(NC(=O)C(Br)C(Br)C(=O)O)cc1Cl` (stereo not drawn), the survivor count under setting [9] is reported as 0 of 6.

As for `C=C1C(=O)OC2C(=O)OC(CCCCCCCC)C12` (stereo not drawn), the survivor count was 1 of 3 (dose: 50.0 mg/kg/injection, schedule: Q04DX002 (ip), vehicle: Klucel (hydroxypropylcellulose) (HPC)) and 1 of 3 under setting [4].

For the compound `O=C1CCCCC1c1sc([N+](=O)[O-])cc1[N+](=O)[O-]` (stereo not drawn), the survivor count under setting [6] is 0 of 3.

With `CC(C)C1=CC2=CCC3C(C)(C(N)=O)CCCC3(C)C2CC1CC#N` (stereo not drawn), the survivor count under setting [2] is 6 of 6.

In the case of `Cc1nc(-c2ccc(N=Cc3ccc(N(CCOS(C)(=O)=O)CCOS(C)(=O)=O)cc3C)cc2)cs1`, under “dose: 100.0 mg/kg/injection, schedule: Q01DX001 (ip), vehicle: Klucel (hydroxypropylcellulose) (HPC)”, the T/C was 132 % of control. In addition, the survivor count is listed as 3 of 6 (dose: 200.0 mg/kg/injection, schedule: Q01DX001 (ip), vehicle: Klucel (hydroxypropylcellulose) (HPC)) and 0 of 6 (dose: 400.0 mg/kg/injection, schedule: Q01DX001 (ip), vehicle: Klucel (hydroxypropylcellulose) (HPC)).

As for `CN(C)c1ccc(/C=C/C(=O)Cc2ccccc2)cc1`, under “dose: 25.0 mg/kg/injection, schedule: Q04DX002 (ip), vehicle: saline with Tween-80”, the survivor count is reported as 3 of 3.
